The values that follow come from publication PMC8481542.

Like-named read-outs stand apart in the source and are kept apart here. Results are given in words; binding and its absence hold for the method and conditions named. In cells and extracts the contact can be indirect. Some binding calls cover weakened binding; strength is not graded here. For some assays here: Sequences can lack the tags named with a protein.

For assay [1], the target named is T1, Tim21 (S. cerevisiae (endogenous in yeast mitochondria)) (UniProt P53220).
T1 sequence: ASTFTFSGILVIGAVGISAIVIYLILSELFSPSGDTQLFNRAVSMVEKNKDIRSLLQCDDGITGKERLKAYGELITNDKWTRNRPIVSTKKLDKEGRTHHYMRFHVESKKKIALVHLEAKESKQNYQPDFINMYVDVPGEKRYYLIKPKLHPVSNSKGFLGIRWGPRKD
Nature of the assay: cross-linking; TIM23 complex isolated from ^HisS*Tim23 mitochondria after import of buffer or Jac1^sfGFP; 2 mM DSS or 10 mM EDC 3 h on ice, or 2 mM SDA; LC-MS/MS (approach 1), corroborated by in organello approaches 2 and 3.

For assay [2], the target named is T2, Tim23 released from ^HisS*Tim23 by SUMOstar protease (S. cerevisiae) (UniProt P32897).
T2 sequence: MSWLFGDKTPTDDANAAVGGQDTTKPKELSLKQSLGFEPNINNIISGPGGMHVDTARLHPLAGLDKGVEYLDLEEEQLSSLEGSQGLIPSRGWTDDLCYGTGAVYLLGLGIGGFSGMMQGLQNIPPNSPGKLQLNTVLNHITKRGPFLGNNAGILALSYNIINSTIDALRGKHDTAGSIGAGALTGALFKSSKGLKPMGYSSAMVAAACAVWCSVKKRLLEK
Described as above.

The target of assay [3] is T3, Pam17 (S. cerevisiae (endogenous in yeast mitochondria)) (UniProt P36147).
T3 sequence: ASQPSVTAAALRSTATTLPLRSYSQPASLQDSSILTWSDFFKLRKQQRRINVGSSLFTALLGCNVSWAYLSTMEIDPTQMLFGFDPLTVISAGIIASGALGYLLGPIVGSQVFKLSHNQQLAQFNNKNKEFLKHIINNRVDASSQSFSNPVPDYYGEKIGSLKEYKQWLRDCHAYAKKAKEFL
Described as above.

The target of assay [4] is T4, Tim17^ALFA (S. cerevisiae), P39515.
T4 chain: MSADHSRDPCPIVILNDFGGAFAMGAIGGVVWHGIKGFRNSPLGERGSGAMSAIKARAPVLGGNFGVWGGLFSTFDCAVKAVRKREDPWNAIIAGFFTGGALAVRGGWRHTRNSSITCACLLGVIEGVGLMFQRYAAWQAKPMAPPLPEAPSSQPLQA
Put plainly: co-IP; mitochondria of yeast expressing a wild-type and a tagged copy; 1% digitonin; ALFA Selector ST or FLAG beads, 1 h 4 °C, SDS elution; western blot. The following applies: remark: other sources report otherwise. For orientation: In western blotting, separated proteins are transferred to a membrane and probed.

The target of assay [5] is T1, Tim21 (S. cerevisiae (endogenous in yeast mitochondria)). Nature of the assay: cross-linking; TIM23 complex isolated from ^HisS*Tim23 and ^HisS*Tim23 tim21Δ mitochondria after Jac1^sfGFP import; 2 mM DSS; SDS-PAGE and immunoblotting.
The target of assay [6] is T5, Tim50 (S. cerevisiae (endogenous in yeast mitochondria)) (UniProt Q02776).
T5 sequence: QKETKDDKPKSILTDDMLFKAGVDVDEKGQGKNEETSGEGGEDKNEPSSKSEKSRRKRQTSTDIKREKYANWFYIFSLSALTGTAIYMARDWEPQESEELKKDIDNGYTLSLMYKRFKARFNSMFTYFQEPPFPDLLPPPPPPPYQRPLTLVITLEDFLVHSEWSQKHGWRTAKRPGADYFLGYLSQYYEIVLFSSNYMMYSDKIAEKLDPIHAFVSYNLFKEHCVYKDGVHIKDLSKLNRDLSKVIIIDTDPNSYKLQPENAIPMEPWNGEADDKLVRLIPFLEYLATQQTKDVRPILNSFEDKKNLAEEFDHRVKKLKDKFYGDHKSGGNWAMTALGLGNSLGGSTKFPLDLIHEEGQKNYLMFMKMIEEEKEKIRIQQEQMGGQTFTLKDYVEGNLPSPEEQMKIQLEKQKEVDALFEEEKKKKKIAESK
Put plainly: cross-linking; in organello (approach 2): ^HisS*Tim23 mitochondria with buffer or Jac1^sfGFP, 5 mM EDC/10 mM Sulfo NHS 3 h on ice in HN buffer; LC-MS/MS.

The target of assay [7] is T1, Tim21 (S. cerevisiae (endogenous in yeast mitochondria)). Nature of the assay: cross-linking; TIM23 complex isolated from ^HisS*Tim23 mitochondria after import of buffer or Jac1^sfGFP; 2 mM DSS or 10 mM EDC 3 h on ice, or 2 mM SDA; LC-MS/MS (approach 1), corroborated by in organello approaches 2 and 3. The source holds these as a separate data set.
Assay [8] deals with Tim21^FLAG (S. cerevisiae) (UniProt P53220). Nature of the assay: co-IP; mitochondria of yeast expressing a wild-type and a tagged copy; 1% digitonin; ALFA Selector ST or FLAG beads, 1 h 4 °C, SDS elution; western blot.
Assay [9] has as its target T2, Tim23 released from ^HisS*Tim23 by SUMOstar protease (S. cerevisiae). Put plainly: cross-linking; TIM23 complex isolated from ^HisS*Tim23 mitochondria after import of buffer or Jac1^sfGFP; 2 mM DSS or 10 mM EDC 3 h on ice, or 2 mM SDA; LC-MS/MS (approach 1), corroborated by in organello approaches 2 and 3. This is another data set of the same source.
In assay [10] the target is T6, Tim23^ALFA (S. cerevisiae), P32897.
T6 chain: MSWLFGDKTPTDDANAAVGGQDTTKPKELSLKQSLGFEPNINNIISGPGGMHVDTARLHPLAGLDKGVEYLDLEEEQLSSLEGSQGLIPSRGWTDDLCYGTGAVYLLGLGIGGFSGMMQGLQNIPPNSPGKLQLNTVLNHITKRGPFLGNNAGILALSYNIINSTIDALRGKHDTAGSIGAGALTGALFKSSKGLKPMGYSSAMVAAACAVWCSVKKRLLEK
Nature of the assay: co-IP; mitochondria of yeast expressing a wild-type and a tagged copy; 1% digitonin; ALFA Selector ST or FLAG beads, 1 h 4 °C, SDS elution; western blot. The conditions noted are these: remark: other sources report otherwise.

The target of assay [11] is T7, Pam16 (S. cerevisiae (endogenous in yeast mitochondria)) (UniProt P42949).
T7 sequence: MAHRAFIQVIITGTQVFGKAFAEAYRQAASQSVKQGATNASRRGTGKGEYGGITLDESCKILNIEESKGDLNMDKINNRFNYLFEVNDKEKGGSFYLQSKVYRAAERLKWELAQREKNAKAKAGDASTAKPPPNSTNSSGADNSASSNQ
Nature of the assay: cross-linking; TIM23 complex isolated from ^HisS*Tim23 mitochondria after import of buffer or Jac1^sfGFP; 2 mM DSS or 10 mM EDC 3 h on ice, or 2 mM SDA; LC-MS/MS (approach 1), corroborated by in organello approaches 2 and 3.

The target in assay [12] is Pam18^ALFA (S. cerevisiae) (UniProt Q07914). Nature of the assay: co-IP; mitochondria of yeast expressing a wild-type and a tagged copy; 1% digitonin; ALFA Selector ST or FLAG beads, 1 h 4 °C, SDS elution; western blot.
The target in assay [13] is T8, Pam16^ALFA (S. cerevisiae), P42949.
T8 chain: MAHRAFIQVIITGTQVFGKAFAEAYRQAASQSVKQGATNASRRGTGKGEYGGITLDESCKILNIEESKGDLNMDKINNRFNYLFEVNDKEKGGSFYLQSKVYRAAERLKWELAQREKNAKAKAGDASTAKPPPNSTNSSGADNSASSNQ
Described as above. The following applies: remark: other sources report otherwise.

Take Tim17 (from UniProt P39515 1-158): the binding result in assay [1], in [2] and in assay [3] was “binds” each time.

B1: Tim17^ALFA, P39515 1-158 (protein)
chain: MSADHSRDPCPIVILNDFGGAFAMGAIGGVVWHGIKGFRNSPLGERGSGAMSAIKARAPVLGGNFGVWGGLFSTFDCAVKAVRKREDPWNAIIAGFFTGGALAVRGGWRHTRNSSITCACLLGVIEGVGLMFQRYAAWQAKPMAPPLPEAPSSQPLQA
Consider B1, for which the binding entry in assay [4] was “binds”.

B2: Tom22 (protein, UniProt P49334 1-152)
chain: MVELTEIKDDVVQLDEPQFSRNQAIVEEKASATNNDVVDDEDDSDSDFEDEFDENETLLDRIVALKDIVPPGKRQTISNFFGFTSSFVRNAFTKSGNLAWTLTTTALLLGVPLSLSILAEQQLIEMEKTFDLQSDANNILAQGEKDAAATAN
With B2, the binding result in assay [5], in assay [6] and in [7] was “binds” in each case.

B3: Tim21^FLAG (protein, UniProt P53220 71-239)
chain: ASTFTFSGILVIGAVGISAIVIYLILSELFSPSGDTQLFNRAVSMVEKNKDIRSLLQCDDGITGKERLKAYGELITNDKWTRNRPIVSTKKLDKEGRTHHYMRFHVESKKKIALVHLEAKESKQNYQPDFINMYVDVPGEKRYYLIKPKLHPVSNSKGFLGIRWGPRKD
On to B3, for which the binding entry in [8] is listed as “binds”.

B4: Tim21 (protein, UniProt P53220 71-239)
chain: ASTFTFSGILVIGAVGISAIVIYLILSELFSPSGDTQLFNRAVSMVEKNKDIRSLLQCDDGITGKERLKAYGELITNDKWTRNRPIVSTKKLDKEGRTHHYMRFHVESKKKIALVHLEAKESKQNYQPDFINMYVDVPGEKRYYLIKPKLHPVSNSKGFLGIRWGPRKD
Turning to B4, the binding entry in assay [9] is on record as “binds”.

B5: Mgr2 (protein, UniProt Q02889 1-113)
chain: MPPLPQNYAQQQPSNWDKFKMGLMMGTTVGVCTGILFGGFAIATQGPGPDGVVRTLGKYIAGSAGTFGLFMSIGSIIRSDSESSPMSHPNLNLQQQARLEMWKLRAKYGIRKD
Turning to B5, the binding result in [7] and in [9] was “binds” in each case.

B6: Tim23^ALFA, P32897 1-222 (protein)
chain: MSWLFGDKTPTDDANAAVGGQDTTKPKELSLKQSLGFEPNINNIISGPGGMHVDTARLHPLAGLDKGVEYLDLEEEQLSSLEGSQGLIPSRGWTDDLCYGTGAVYLLGLGIGGFSGMMQGLQNIPPNSPGKLQLNTVLNHITKRGPFLGNNAGILALSYNIINSTIDALRGKHDTAGSIGAGALTGALFKSSKGLKPMGYSSAMVAAACAVWCSVKKRLLEK
For the molecule B6, in assay [10], the binding entry was “binds”.

B7: Pam18 (protein, UniProt Q07914 1-168)
chain: MSSQSNTGNSIEAPQLPIPGQTNGSANVTVDGAGVNVGIQNGSQGQKTGMDLYFDQALNYMGEHPVITGFGAFLTLYFTAGAYKSISKGLNGGKSTTAFLKGGFDPKMNSKEALQILNLTENTLTKKKLKEVHRKIMLANHPDKGGSPFLATKINEAKDFLEKRGISK
For B7, the binding entry in assay [9] and in assay [11] was “binds” throughout.

B8: Pam18^ALFA (protein, UniProt Q07914 1-168)
chain: MSSQSNTGNSIEAPQLPIPGQTNGSANVTVDGAGVNVGIQNGSQGQKTGMDLYFDQALNYMGEHPVITGFGAFLTLYFTAGAYKSISKGLNGGKSTTAFLKGGFDPKMNSKEALQILNLTENTLTKKKLKEVHRKIMLANHPDKGGSPFLATKINEAKDFLEKRGISK
Take B8: the binding entry in [12] is “no binding”.

B9: Tom5 (peptide, UniProt P80967 1-50)
chain: MFGLPQQEVSEEEKRAHQEQTEKTLKQAAYVAAFLWVSPMIWHLVKKQWK
For B9, the binding entry in [9] was “binds”.

B10: Pam16^ALFA, P42949 1-149 (protein)
chain: MAHRAFIQVIITGTQVFGKAFAEAYRQAASQSVKQGATNASRRGTGKGEYGGITLDESCKILNIEESKGDLNMDKINNRFNYLFEVNDKEKGGSFYLQSKVYRAAERLKWELAQREKNAKAKAGDASTAKPPPNSTNSSGADNSASSNQ
Consider B10, for which the binding result in assay [13] was “no binding”.
